Measured values from US9389223B2, “Pharmacodynamic assays” (The United States of America, as represented by the …, priority 2004, dated 2016).
For at least one compound, name, drawing or mass did not settle the structure.

Experiments:
[1] = system: acetylated lysine in whole blood cells; test: Flow cytometry of protein acetylation in whole blood exposed to drug in vitro; type: cell-based, human; conditions: MS-275 0 to 1 micromolar, vs no drug
[2] = system: acetylated lysine in buffy coat cells (CD19, CD3, CD15, CD14); test: Five-color flow cytometry of acetylation with cell-type specific markers in buffy coat samples; type: cell-based, human; conditions: 1 micromolar, 18 hour, vs no drug
[3] = system: K562 chronic myelogenous leukemia cells; test: Flow cytometry of apoptosis (activated caspase 3) in K562 cells; type: cell-based, human; conditions: K562, 1 μM, 48 hours, single drug
Experimental: K562 chronic myelogenous leukemia cells were incubated with vehicle alone, 1 μM imatinib (the anticancer drug also known as Gleevec), 1 μM MS-275, or both for 48 hours. The cells were then stained for acetylated lysine as described above and co-stained with antibody to activated caspase 3 as an indicator of cells undergoing apoptosis. Dot plots display acetylated lysine on the x-axis and activated caspase 3 on the y-axis. The multiparameter flow cytometric assay is a powerful tool to monitor pharmacodynamic changes induced by anticancer drugs used in monotherapy or combination therapy protocols. HDAC inhibitors have been reported to promote imatinib-mediated apoptosis in Bcr/Abl+ human myeloid leukemia cells, including imatinib-resistant cells. The effect of MS-275 and imatinib were therefore examined, alone and in combination, on apoptosis in the Bcr/Abl+ cell line K562. Because both MS-275 and imatinib have been reported to induce apoptosis associated with caspase 3 activation, an antibody was used that specifically recognizes activated caspase 3 in a flow assay. This caspase 3 flow assay effectively monitors drug-induced apoptosis. When combined detection of acetylated lysine, this flow assay permitted simultaneous monitoring of apoptosis (caspase 3) and acetylated lysine.

[4] = system: acetylated lysine in whole blood cells (CD3 T cells and non-T cells); test: Flow cytometry of protein acetylation in whole blood of a patient treated in vivo; design: species or system human; conditions: 12 mg/m, 24 hours after treatment vs before, both T cells and non-T cells
[5] = system: acetylated lysine in bone marrow cells; test: Flow cytometry of protein acetylation in bone marrow aspirates of a leukemia patient treated in vivo; design: species or system human; conditions: 24 hours after administration vs before
[6] = system: acetylated lysine in unfractionated buffy coats of healthy donors; test: Immunocytochemical analysis of protein acetylation in unfractionated buffy coats; type: cell-based, human; conditions: 1 μM, 20 hours, majority of cells, vs untreated
[7] = system: acetylated lysine in bone marrow aspirates; test: Flow cytometry of acetylated lysine in leukemia patient bone marrow aspirates co-stained for p21; type: in vivo, human; conditions: post-treatment vs pre-treatment
[8] = system: cyclin-dependent kinase inhibitor p21; test: Flow cytometry of p21 expression in leukemia patient bone marrow aspirates, in vivo treatment; design: species or system human; conditions: post-treatment vs pre-treatment

Q: `Nc1ccccc1NC(=O)c1ccc(CNC(=O)OCc2cccnc2)cc1` [MS-275, N-(2-aminophenyl)-4-[N-(pyridin-3-ylmethoxycarbonyl)aminomethyl]benzamide] was tested. Which “protein acetylation (acetylated lysine fluorescence)” value [1] did it give?
A: Its value is “increased acetylation”.

Q: What about the “acetylation of all cell types (acetylated lysine fluorescence)” value [2] of the same molecule?
A: The value was “increased acetylation”.

Q: And the “percent of apoptotic cells (activated caspase 3)” value [3]?
A: The value was “increased the percent of apoptotic cells”.

Q: What about the “protein acetylation (acetylated lysine fluorescence)” value [4] of the same molecule?
A: Its value is “increased acetylation”.

Q: What about the “flow cytometry pattern of acetylated cells” value [5] of the same molecule?
A: Its value is “separate into two distinct peaks of cells”.

Q: What about the “protein acetylation by immunocytochemistry” value [6] of the same molecule?
A: The value was “markedly increased”.

Q: And the “level of protein acetylation” value [7]?
A: Its value is “clearly increased”.

Q: And the “level of p21” value [8]?
A: The value was “clearly increased”.
